The source of these data is publication PMC5423270.

The chains behind the UniProt entries cited, without tags or fusion partners.
UniProt Q61188: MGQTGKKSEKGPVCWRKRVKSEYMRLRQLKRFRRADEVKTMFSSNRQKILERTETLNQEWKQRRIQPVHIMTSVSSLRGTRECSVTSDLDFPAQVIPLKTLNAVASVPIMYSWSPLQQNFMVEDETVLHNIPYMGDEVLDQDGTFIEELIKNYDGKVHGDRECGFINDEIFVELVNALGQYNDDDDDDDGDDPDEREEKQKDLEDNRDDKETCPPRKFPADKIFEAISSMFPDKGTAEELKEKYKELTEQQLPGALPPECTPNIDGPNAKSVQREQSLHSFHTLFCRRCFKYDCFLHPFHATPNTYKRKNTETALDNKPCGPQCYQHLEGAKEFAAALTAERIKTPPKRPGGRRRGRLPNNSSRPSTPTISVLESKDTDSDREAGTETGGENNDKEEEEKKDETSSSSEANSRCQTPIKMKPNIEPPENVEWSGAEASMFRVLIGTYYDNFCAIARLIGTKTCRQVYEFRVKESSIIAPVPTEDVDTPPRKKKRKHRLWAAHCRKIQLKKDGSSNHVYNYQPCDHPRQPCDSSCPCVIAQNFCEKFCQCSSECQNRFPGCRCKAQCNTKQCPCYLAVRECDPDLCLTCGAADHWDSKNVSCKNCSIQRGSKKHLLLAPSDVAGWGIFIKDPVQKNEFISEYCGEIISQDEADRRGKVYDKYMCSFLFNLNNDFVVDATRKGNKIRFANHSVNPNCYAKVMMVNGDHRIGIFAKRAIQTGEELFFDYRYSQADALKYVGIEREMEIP

For the assay, the target named is Enhancer of zeste homologue 2 (EZH2), endogenous (mouse (endogenous in C2C12)) (UniProt Q61188). Description: co-IP; anti-EZH2 IP (IgG as control) from total extracts of C2C12 cells in GM, DM or DM with SB202190, MG132 for 2 h before collecting; 50 mM Tris-HCl pH 7.5, 150 mM NaCl, 1% NP-40; blot for EZH2 and PJA1.

These are yes or no findings as the source states them, for the method shown. In cells and extracts the contact can be indirect. Some results given as binding are weak or reduced against the parent protein; the word gives no strength.

B1: Praja1 (PJA1) E3 ubiquitin ligase, endogenous (protein, UniProt O55176 1-578)
chain: MSHQERIASQRRTTAEVPMHRSTANQSKRSRSPFASTRRRWDDSESSGASLAVESEDYSRYPPREYRASGSRRGLAYGHIDTVVARDSEEEGAGPVDRLPVRGKAGKFKDDPEKGARSSRFTSVNHDAKEECGKVESPPAARCSARRAELSKQNGSSASQISSAEGRAAAKGNNSLERERQNLPARPSRAPVSICGGGENTPKSAEEPVVRPKVRNVATPNCMKPKVFFDTDDDDDVPHSTSRWRDAADAEEAHAEGLARRGRGEAASSSEPRYAEDQDARSEQAKADKVPRRRRTMADPDFWAYTDDYYRYYEEDSDSDKEWMAALRRKYRSREQPQSSSGESWELLPGKEELERQQAGAGSLASAGSNGSGYPEEVQDPSLQEEEQASLEEGEIPWLRYNENESSSEGDNESTHELIQPGMFMLDGNNNLEDDSSVSEDLEVDWSLFDGFADGLGVAEAISYVDPQFLTYMALEERLAQAMETALAHLESLAVDVEVANPPASKESIDALPEILVTEDHGAVGQEMCCPICCSEYVKGEVATELPCHHYFHKPCVSIWLQKSGTCPVCRCMFPPPL
As to B1, the binding entry is “binds”.
